The record followed here is paper PMC3547798, “Binding of Nucleoid-Associated Protein Fis to DNA Is Regulated by DNA Breathing Dynamics”.

The target in the data set is T1, Fis (Escherichia coli DH5alpha) (UniProt P0A6R3).
T1 sequence (looked up): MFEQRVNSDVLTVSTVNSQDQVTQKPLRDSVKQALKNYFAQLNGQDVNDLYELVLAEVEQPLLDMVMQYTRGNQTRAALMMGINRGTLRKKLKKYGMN
Put plainly: EMSA. As to conditions: salmon sperm DNA, 20 mM HEPES (pH not stated), 150 mM NaCl, 500 ug/mL BSA, 1 mM DTT, 0.1 mM EDTA, 0.5-1 ug/ul salmon sperm DNA, room temperature 30 min, recombinant protein, residues 1-98, label: 5'-biotin on forward strand. (In general: Mobility shift assays separate free from complexed probe on a gel.)

No signal at the amounts used counts as a negative. Protein sequences can lack the tags named with them. The comparison behind a weaker result is the experiment's own reference, which may not be listed here. For at least one entry, the source does not settle the construct or the ends of the probe.

Turning to “AAATTTGTTTGAATTTTGAGCAAATTT / AAATTTGCTCAGCGCCCAAACAAATTT [FIS1-FIS2 hybrid]”, the binding result (no detectable binding up to 0.75 uM Fis) is on record as “no binding”.

Turning to “AAATTTGTTTGGGCGCTGAGCAAATTT (double strand) [FIS2]”, the binding result (none at 0.25 uM, detected only at >=0.50 uM Fis) is recorded as “binds more weakly”.

Take “AAATTTGTTTGGGCGCTGAGCAAATTT (double strand) [FIS2m3]”: the binding result (barely detectable even at 1.0 uM Fis, O6-methylguanine at nt 12, 13 and 15 of strand 1 (positions -2, -1, +1)) is listed as “binds more weakly”.

Take “CGCTGTGCGTGAATTTTGCGCACGCTG (double strand) [FIS1S]”: the binding result (complex detectable only at 0.75-1.0 uM Fis) was “binds more weakly”.
